Results reported in paper PMC5084153, “Structural studies on MRG701 chromodomain reveal a novel dimerization interface of MRG proteins in green plants” (Protein & Cell, 2016).
No constants are given. Whether binding was seen depends on the method and setting. Some entries that bind do so weakly or less than the wild type. Primed or numbered codes have the meaning given here. No end group written: not given here. Me3″ = trimethyl (trimethyl-lysine)

Legend:
[1] = target: T1, MRG1 chromodomain mutant W58A (MRG1^CDW58A) (Arabidopsis thaliana) (UniProt Q94C32); experiment: ITC; MicroCal iTC200, 20°C, 20 mmol/L Tris pH 8.0, 100 mmol/L NaCl; protein 0.1-0.2 mmol/L in the cell, peptide 1-2 mmol/L in the syringe; one-site model; both purified
T1 sequence: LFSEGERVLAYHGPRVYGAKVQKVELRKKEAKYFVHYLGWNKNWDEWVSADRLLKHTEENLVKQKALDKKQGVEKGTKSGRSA

[2] = target: T2, MRG1 chromodomain (MRG1^CD, residues 28-110) (Arabidopsis thaliana) (UniProt Q94C32); experiment: as above
T2 sequence: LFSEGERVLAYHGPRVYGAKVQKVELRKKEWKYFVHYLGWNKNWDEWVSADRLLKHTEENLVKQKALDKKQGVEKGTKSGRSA

[3] = target: T3, MRG2 chromodomain mutant E75A (MRG2^CDE75A) (Arabidopsis) (UniProt Q4V3E2); experiment: as above
T3 sequence: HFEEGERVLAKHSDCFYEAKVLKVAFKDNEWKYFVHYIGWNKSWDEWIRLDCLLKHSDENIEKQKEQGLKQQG

[4] = target: T4, MRG2 chromodomain (MRG2^CD) (Arabidopsis, UniProt Q4V3E2 51-123); experiment: as above
T4 chain: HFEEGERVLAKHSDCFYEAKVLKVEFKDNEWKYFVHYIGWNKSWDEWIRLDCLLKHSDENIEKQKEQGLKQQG

[5] = target: T1, MRG1 chromodomain mutant W58A (MRG1^CDW58A) (Arabidopsis thaliana); experiment: SEC-MALS; Wyatt 015S5 (150 Å) column, 0.5 mL/min, 10 mmol/L Tris 8.0, 100 mmol/L NaCl; self-association of the chromodomain; both purified
[6] = target: T3, MRG2 chromodomain mutant E75A (MRG2^CDE75A) (Arabidopsis); experiment: as above

In the case of “histone H3K36me3 peptide (residues 31-41) (from UniProt P68431 32-42)”, the binding [1] is reported as “binds”, the binding [2] is reported as “binds” and the binding [3] is reported as “binds”. For the same molecule, the binding [4] was “binds”.

B1: histone H3K4me3 peptide (residues 1-9) (peptide, UniProt P68431 2-10, looked up)
peptide: ARTK(Me3″)QTARK
notes: histone H3, residues 1-9, trimethylated at lysine 4
B1 was tested, and the binding [3] was “binds” and the binding [4] was “binds”.

B2: MRG1 chromodomain mutant W58A (MRG1^CDW58A) (domain or fragment, UniProt Q94C32 28-110)
chain: LFSEGERVLAYHGPRVYGAKVQKVELRKKEAKYFVHYLGWNKNWDEWVSADRLLKHTEENLVKQKALDKKQGVEKGTKSGRSA
B2 was tested, and the binding [5] was “no binding”.

B3: MRG2 chromodomain mutant E75A (MRG2^CDE75A) (domain or fragment, UniProt Q4V3E2 51-123)
chain: HFEEGERVLAKHSDCFYEAKVLKVAFKDNEWKYFVHYIGWNKSWDEWIRLDCLLKHSDENIEKQKEQGLKQQG
In the case of B3, the binding [6] is reported as “no binding”.
